Measurements: patent US20230285585A1, “TREATMENT OF PULMONARY HYPERTENSION” (PHILOGEN S.P.A., priority 2020, published 2023)
No constants are given. Whether binding was seen depends on the method and setting. Some binding calls cover weakened binding; strength is not graded here.

By UniProt entry, the sequences of proteins in these tests, tags left out. Residues count along the entry.
UniProt P02751, residues 1635-1908: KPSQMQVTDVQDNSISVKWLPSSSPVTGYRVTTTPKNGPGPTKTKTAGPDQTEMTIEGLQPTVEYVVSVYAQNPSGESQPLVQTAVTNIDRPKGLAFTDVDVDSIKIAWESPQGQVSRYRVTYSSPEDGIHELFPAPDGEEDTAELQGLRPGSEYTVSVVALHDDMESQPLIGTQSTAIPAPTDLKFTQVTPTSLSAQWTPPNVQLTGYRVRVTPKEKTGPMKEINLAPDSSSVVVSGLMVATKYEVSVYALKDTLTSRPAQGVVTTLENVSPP

B1: F8(db)-mIL9 (protein)
chain: EVQLLESGGGLVQPGGSLRLSCAASGFTFSLFTMSWVRQAPGKGLEWVSAISGSGGSTYYADSVKGRFTISRDNSKNTLYLQMNSLRAEDTAVYYCAKSTHLYLFDYWGQGTLVTVSSGGSGGEIVLTQSPGTLSLSPGERATLSCRASQSVSMPFLAWYQQKPGQAPRLLIYGASSRATGIPDRFSGSGSGTDFTLTISRLEPEDFAVYYCQQMRGRPPTFGQGTKVEIKGGGGSGGGGSGGGGSQRCSTTWGIRDTNYLIENLKDDPPSKCSCSGNVTSCLCLSVPTDDCTTPCYREGLLQLTNATQKSRLLPVFHRVKRIVEVLKNITCPSFSCEKPCNQTMAGNTLSFLKSLLGTFQKTEMQRQKSRP
B2: F8(scFv)-mIL9-F8(scFv) (protein)
chain: EVQLLESGGGLVQPGGSLRLSCAASGFTFSLFTMSWVRQAPGKGLEWVSAISGSGGSTYYADSVKGRFTISRDNSKNTLYLQMNSLRAEDTAVYYCAKSTHLYLFDYWGQGTLVTVSSGGGGSGGGGSGGGGEIVLTQSPGTLSLSPGERATLSCRASQSVSMPFLAWYQQKPGQAPRLLIYGASSRATGIPDRFSGSGSGTDFTLTISRLEPEDFAVYYCQQMRGRPPTFGQGTKVEIKSGGSGSGGGGQRCSTTWGIRDTNYLIENLKDDPPSKCSCSGNVTSCLCLSVPTDDCTTPCYREGLLQLTNATQKSRLLPVFHRVKRIVEVLKNITCPSFSCEKPCNQTMAGNTLSFLKSLLGTFQKTEMQRQKSRPSGGSGSGGGGEVQLLESGGGLVQPGGSLRLSCAASGFTFSLFTMSWVRQAPGKGLEWVSAISGSGGSTYYADSVKGRFTISRDNSKNTLYLQMNSLRAEDTAVYYCAKSTHLYLFDYWGQGTLVTVSSGGGGSGGGGSGGGGEIVLTQSPGTLSLSPGERATLSCRASQSVSMPFLAWYQQKPGQAPRLLIYGASSRATGIPDRFSGSGSGTDFTLTISRLEPEDFAVYYCQQMRGRPPTFGQGTKVEIK
B3: mIL9-F8(db) (protein)
chain: QRCSTTWGIRDTNYLIENLKDDPPSKCSCSGNVTSCLCLSVPTDDCTTPCYREGLLQLTNATQKSRLLPVFHRVKRIVEVLKNITCPSFSCEKPCNQTMAGNTLSFLKSLLGTFQKTEMQRQKSRPGGGGSGGGGSGGGGSEVQLLESGGGLVQPGGSLRLSCAASGFTFSLFTMSWVRQAPGKGLEWVSAISGSGGSTYYADSVKGRFTISRDNSKNTLYLQMNSLRAEDTAVYYCAKSTHLYLFDYWGQGTLVTVSSGGSGGEIVLTQSPGTLSLSPGERATLSCRASQSVSMPFLAWYQQKPGQAPRLLIYGASSRATGIPDRFSGSGSGTDFTLTISRLEPEDFAVYYCQQMRGRPPTFGQGTKVEIK

Molecular target: recombinant fibronectin 11A12 domain (UniProt P02751)
Assay: SPR (BIAcore X100), CM5 chip coated with recombinant fibronectin 11A12 domain

Row | binding | Binder
1 | binds | B1
2 | binds | B2
3 | binds | B3
